This assay has as its target BUBR1_(57-220), yeast two-hybrid fusion (human) (UniProt O60566). Briefly: two-hybrid; Matchmaker 3 Y2H system; strains Y187[pGBKT7-bait] and GOLD[pGADT7-target] mated; growth on SD/-Ade/-His/-Leu/-Trp (quadruple dropout) and X-α-Gal activity (HIS, ADE, MEL1 reporters).

Sequences of proteins named here, by UniProt entry; tags and fusion partners are left off. Residues count along the entry.
UniProt O60566, residues 57-220: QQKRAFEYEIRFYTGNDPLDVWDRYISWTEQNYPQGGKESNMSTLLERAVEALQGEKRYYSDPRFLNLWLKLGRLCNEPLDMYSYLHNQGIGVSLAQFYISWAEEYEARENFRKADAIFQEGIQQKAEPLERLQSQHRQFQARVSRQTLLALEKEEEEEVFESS

No constants are given. Whether binding was seen depends on the method and setting. Binding can be weak; no strength is given.

For the substance “Blinkin_(225-260), yeast two-hybrid fusion (from UniProt Q8NG31-2) (domain or fragment)”, the binding result is reported as “binds”.
As for “Blinkin_(227-250), yeast two-hybrid fusion (from UniProt Q8NG31-2) (domain or fragment)”, the binding result was “binds”.

For the origin of these results see article PMC3267040, “Structure of a Blinkin-BUBR1 Complex Reveals an Interaction Crucial for Kinetochore-Mitotic Checkpoint Regulation via an Unanticipated Binding Site” (Structure(London, England:1993), 2011).
